Measured values as given in patent US12280068B1 (ZYLORION HEALTH INC., priority 2023, dated 2025).
For at least one compound, name, drawing or mass did not settle the structure.

Protein sequences, listed by entry. Tags and fused reporters are not part of them.
UniProt P28223, whole entry: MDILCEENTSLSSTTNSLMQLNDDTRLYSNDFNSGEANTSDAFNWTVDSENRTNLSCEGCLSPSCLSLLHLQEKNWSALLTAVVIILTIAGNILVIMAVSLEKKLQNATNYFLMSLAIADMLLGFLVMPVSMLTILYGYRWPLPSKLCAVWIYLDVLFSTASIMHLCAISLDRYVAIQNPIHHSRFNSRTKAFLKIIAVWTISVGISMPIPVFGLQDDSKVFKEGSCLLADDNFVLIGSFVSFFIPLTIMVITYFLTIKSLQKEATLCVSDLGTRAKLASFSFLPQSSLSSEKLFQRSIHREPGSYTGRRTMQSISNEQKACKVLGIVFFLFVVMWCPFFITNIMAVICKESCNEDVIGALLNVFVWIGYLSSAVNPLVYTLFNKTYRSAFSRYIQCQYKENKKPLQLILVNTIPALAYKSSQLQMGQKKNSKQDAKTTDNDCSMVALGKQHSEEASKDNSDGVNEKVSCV

Assays:
h5HT2A = target: T1, h5HT2A (Homo sapiens, UniProt P28223); assay: NanoBit βarrestin2 recruitment assay in CHO-K1 cells; format: cell-based
T1 construct: expressed in transfected cells; host or cells: CHO-K1 cells, transient transfection with Lipofectamine 3000

human 5HT2A = target: T2, human 5HT2A (Homo sapiens, UniProt P28223); assay: AequoScreen Ca2+ release assay in CHO-K1 cells; format: cell-based
T2 construct: expressed in transfected cells

Compound: CN(C)CCc1c[nH]c2cccc(OP(=O)(O)O)c12 [Psilocybin]
- 5-HT2A βarrestin2 recruitment activity (in words) (h5HT2A): did not display clear activity
- 5-HT2A Ca^2+ release activity (in words) (human 5HT2A): lower potency for 5-HT2A than psilocin
- 5-HT2A-dependent Ca^2+ release (pEC50 ± S.E.M.) (human 5HT2A; CHO-K1 cells expressing h5HT2A): (5.8 ± 0.38)**,^^
